In patent US11400112B2, “Combination therapy for treatment of leukemia” (St George's Hospital Medical School, priority 2018, dated 2022):
For at least one compound, name, drawing or mass did not settle the structure.

Tested on: U937 cells
Assay: Viability of U937 cells (apoptosis assay, Annexin V/7AAD)
Assay type: cell-based
Conditions: for viability of AML cells (Annexin V-/7AAD- cells): 48 hours

Structure (SMILES): CC(=O)N(O)CCCCCNC(=O)CCC(=O)N(O)CCCCCNC(=O)CCC(=O)N(O)CCCCCN [DFO, Deferoxamine]
- viability of AML cells (Annexin V-/7AAD- cells) (ATO 1 μM, ART 5 μM, ALA 1 mM, DFO 20 μM, FIG. 7): did not affect
- effect of iron chelator on apoptotic activity of ART/ALA/ATO combinations (DFO 20 μM co-administered, FIG. 7): abrogated
- effect of iron chelator on apoptotic activity of ART/hemin/ATO combinations (DFO co-administered, FIG. 8 panel B): abrogated
- viability of AML cells (Annexin V-/7AAD- cells) (hemin instead of ALA, FIG. 8): did not affect
